Results: the supplement of paper PMC10849652
Some of the results follow. Residues, ends and D or L forms follow the SMILES beside them. *: point of attachment. Cbz = O=C(OCc1ccccc1)*

By UniProt entry, the sequences of proteins in these tests, tags left out. Where a name states a change or a piece, a line headed by the entry shows the natural chain unless it says otherwise.
UniProt P49790, whole entry, looked up: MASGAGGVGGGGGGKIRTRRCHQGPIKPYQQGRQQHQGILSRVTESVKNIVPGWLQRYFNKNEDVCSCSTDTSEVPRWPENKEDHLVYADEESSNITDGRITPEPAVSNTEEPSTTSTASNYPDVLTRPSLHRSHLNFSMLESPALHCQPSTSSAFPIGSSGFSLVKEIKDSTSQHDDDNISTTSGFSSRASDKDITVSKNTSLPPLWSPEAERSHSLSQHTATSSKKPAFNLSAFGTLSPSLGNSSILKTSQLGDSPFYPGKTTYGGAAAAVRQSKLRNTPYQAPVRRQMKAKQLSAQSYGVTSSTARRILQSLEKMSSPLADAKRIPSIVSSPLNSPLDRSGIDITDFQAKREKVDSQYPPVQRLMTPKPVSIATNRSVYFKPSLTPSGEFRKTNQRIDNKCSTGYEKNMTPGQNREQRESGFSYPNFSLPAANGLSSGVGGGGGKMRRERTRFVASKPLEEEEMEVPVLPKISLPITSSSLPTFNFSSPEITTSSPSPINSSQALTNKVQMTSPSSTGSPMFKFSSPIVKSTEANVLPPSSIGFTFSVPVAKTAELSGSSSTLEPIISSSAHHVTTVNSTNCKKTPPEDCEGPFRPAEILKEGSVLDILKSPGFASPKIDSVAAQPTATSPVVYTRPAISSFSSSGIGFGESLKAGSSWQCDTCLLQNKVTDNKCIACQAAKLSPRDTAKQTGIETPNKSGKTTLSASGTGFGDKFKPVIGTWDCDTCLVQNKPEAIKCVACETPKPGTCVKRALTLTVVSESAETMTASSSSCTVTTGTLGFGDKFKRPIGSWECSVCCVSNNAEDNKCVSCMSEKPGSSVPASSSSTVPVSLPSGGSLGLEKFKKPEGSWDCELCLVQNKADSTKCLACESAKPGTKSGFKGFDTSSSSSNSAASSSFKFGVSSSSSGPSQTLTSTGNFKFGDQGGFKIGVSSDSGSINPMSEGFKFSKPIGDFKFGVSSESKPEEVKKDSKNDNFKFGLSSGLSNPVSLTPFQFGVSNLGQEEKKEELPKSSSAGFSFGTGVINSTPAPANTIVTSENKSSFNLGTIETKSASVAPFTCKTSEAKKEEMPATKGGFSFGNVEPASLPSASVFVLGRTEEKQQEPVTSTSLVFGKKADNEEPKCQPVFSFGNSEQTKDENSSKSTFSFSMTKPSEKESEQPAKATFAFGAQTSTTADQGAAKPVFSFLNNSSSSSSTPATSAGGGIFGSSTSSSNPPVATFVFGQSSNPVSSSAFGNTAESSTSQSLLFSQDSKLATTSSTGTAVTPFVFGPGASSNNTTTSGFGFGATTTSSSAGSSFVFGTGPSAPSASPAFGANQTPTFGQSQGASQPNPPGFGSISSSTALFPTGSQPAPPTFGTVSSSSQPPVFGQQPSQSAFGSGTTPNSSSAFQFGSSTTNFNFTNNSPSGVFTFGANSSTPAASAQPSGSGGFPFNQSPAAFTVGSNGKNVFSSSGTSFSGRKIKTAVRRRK
UniProt Q96BN8, whole entry, looked up: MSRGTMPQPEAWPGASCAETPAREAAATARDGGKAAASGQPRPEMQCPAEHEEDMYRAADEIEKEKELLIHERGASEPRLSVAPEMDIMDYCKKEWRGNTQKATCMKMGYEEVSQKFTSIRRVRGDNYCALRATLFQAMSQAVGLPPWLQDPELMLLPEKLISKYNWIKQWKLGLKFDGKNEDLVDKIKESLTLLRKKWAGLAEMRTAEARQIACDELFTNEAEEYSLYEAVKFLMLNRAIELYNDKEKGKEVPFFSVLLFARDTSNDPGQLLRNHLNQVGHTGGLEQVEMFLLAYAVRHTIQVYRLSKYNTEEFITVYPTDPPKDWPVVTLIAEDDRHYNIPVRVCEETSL
UniProt Q8N543: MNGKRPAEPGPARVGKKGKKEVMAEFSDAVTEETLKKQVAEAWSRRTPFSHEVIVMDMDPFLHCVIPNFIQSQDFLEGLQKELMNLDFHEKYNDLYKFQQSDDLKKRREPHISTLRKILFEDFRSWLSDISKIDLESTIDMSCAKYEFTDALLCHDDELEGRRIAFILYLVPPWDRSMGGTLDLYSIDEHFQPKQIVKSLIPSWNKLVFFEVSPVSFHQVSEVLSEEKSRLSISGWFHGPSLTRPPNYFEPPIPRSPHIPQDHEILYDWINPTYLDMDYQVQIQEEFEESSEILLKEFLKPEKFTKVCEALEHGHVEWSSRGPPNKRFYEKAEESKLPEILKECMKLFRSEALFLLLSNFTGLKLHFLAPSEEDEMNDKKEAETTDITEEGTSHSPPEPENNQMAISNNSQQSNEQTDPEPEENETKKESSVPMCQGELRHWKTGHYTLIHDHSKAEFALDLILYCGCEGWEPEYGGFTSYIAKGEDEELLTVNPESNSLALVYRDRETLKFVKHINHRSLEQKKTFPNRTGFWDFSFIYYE
UniProt O43913: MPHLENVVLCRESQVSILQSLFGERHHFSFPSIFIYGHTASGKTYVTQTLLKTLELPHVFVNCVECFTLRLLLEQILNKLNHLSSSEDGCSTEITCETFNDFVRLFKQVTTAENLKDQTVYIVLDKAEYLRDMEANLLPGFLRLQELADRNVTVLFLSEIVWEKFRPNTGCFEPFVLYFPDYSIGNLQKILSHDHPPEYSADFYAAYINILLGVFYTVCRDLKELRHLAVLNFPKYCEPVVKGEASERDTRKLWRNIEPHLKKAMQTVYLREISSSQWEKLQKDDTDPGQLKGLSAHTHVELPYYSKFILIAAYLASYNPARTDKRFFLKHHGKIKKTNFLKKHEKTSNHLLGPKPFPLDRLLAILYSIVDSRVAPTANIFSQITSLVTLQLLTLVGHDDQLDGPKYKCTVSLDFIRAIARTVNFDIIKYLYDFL
UniProt Q13416: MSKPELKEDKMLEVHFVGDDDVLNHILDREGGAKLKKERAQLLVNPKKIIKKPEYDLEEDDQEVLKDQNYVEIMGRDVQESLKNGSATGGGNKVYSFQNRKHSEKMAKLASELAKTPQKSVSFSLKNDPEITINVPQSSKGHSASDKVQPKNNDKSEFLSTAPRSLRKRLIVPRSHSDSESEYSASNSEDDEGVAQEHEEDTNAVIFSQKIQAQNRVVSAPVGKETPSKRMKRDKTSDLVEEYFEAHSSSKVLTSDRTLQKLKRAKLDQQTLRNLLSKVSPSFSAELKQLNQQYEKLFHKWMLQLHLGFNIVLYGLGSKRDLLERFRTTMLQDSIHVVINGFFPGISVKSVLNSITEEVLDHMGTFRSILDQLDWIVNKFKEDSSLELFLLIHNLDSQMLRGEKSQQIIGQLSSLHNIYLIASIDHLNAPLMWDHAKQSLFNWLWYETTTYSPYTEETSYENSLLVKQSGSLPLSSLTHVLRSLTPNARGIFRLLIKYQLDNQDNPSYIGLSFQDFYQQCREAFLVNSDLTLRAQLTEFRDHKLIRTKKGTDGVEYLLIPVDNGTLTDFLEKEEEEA
UniProt Q9BZD4: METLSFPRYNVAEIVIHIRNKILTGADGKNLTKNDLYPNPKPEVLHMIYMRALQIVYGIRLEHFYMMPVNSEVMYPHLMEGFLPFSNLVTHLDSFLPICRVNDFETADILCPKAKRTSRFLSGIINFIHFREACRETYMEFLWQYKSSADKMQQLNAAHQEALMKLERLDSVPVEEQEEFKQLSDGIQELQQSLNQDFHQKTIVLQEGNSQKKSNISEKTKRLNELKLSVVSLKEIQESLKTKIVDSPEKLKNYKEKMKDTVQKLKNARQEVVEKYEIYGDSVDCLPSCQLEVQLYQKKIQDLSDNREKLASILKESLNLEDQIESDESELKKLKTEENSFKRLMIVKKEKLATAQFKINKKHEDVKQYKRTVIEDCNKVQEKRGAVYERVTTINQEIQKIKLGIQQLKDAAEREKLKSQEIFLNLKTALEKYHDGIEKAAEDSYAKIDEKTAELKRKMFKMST
UniProt Q9H1E3: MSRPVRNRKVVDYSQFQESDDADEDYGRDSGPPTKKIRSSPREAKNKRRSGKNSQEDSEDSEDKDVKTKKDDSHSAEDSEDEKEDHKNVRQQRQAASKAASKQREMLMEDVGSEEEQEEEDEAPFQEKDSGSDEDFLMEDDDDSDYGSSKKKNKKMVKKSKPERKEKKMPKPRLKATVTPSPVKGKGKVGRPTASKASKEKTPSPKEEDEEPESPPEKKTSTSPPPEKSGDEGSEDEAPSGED
UniProt Q12769: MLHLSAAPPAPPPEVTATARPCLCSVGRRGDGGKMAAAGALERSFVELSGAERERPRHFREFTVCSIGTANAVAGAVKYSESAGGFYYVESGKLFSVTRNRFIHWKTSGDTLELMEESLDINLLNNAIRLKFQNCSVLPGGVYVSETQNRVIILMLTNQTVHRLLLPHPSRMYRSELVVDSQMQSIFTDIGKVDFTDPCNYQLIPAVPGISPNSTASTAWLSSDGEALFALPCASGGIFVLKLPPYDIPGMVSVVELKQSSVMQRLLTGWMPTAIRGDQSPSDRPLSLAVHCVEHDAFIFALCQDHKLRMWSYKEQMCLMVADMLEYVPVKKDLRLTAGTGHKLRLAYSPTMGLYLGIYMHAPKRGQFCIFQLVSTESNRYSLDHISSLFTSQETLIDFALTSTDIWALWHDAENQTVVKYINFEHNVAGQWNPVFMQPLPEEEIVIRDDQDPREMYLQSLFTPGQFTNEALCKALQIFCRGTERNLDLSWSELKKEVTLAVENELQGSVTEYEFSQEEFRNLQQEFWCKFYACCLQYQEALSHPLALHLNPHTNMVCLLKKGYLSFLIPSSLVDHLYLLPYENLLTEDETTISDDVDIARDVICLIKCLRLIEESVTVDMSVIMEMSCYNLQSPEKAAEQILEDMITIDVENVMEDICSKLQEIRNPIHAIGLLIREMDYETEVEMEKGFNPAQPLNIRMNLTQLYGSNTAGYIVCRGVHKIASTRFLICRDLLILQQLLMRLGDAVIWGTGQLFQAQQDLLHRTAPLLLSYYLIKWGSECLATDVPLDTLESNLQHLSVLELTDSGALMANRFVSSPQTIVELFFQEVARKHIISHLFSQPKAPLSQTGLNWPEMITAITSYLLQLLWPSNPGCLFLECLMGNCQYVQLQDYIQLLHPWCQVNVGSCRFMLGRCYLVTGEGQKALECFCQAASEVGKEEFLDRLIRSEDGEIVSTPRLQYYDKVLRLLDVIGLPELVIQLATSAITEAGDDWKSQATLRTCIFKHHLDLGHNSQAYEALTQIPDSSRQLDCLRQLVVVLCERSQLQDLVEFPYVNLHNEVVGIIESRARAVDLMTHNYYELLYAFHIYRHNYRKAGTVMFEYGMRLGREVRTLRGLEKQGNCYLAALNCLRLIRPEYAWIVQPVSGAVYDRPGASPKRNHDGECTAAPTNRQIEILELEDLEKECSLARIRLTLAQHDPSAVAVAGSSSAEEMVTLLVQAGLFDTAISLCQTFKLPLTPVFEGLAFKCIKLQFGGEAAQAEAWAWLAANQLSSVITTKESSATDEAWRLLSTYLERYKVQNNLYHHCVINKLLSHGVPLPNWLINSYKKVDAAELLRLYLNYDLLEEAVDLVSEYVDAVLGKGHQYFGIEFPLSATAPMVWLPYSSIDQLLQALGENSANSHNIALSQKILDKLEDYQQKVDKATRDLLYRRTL
UniProt Q6PK18: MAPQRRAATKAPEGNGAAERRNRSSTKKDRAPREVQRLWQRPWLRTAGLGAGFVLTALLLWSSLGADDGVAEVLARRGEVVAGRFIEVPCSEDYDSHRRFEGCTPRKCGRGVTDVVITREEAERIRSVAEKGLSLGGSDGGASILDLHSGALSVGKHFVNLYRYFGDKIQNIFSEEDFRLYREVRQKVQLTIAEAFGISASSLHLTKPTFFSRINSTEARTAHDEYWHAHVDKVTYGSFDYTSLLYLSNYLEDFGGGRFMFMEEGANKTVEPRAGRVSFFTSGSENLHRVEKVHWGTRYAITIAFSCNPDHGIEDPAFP
UniProt Q9BV86: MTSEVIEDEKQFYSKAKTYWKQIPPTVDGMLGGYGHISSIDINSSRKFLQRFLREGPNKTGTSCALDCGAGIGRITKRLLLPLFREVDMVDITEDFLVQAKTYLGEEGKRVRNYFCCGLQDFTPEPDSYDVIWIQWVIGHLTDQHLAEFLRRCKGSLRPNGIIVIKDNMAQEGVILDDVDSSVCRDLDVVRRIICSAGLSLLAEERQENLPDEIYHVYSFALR
UniProt Q5TFE4: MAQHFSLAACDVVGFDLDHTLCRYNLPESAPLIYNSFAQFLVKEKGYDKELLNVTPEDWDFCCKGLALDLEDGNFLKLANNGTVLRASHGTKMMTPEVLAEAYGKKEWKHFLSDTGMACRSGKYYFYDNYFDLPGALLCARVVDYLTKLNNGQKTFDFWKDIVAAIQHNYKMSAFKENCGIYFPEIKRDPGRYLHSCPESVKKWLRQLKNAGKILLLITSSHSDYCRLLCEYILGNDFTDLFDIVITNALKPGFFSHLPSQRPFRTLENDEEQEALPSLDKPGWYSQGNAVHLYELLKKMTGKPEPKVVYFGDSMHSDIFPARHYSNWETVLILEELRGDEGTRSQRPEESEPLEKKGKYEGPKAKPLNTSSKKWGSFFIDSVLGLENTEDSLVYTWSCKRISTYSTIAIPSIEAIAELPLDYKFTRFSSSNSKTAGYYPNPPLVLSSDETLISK

Legend:
Assay in all cases: log2 fold change, soluble protein after heating vs DMSO (PISA); higher = thermal stabilisation; K562 cells, 10 uM, 30 min; active = over 0.2 and 3.5 SD of the protein, either way, in both replicates (recomputed)
IRAK-1-4 Inhibitor I = compound: C1COCCN1CCN2C3=CC=CC=C3N=C2NC(=O)C4=CC(=CC=C4)[N+](=O)[O-] [IRAK-1-4 Inhibitor I]
Summary of the method: (§1)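 K562 cells at 2×10^6 cells/mL were given 10 μM compound for 30 min. Aliquots then went through 3 min of heating across 48°C-58°C, were pooled, and were extracted in PBS with 0.5% NP-40 at 4°C, and the supernatant after 21,000xg for 90 min was quantified by TMTpro 16plex LC-MS/MS with channel sums equalised. Thermal stability relative to control samples, from duplicates, is given as log2 fold change.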

ibrutinib = compound: C=CC(=O)N1CCC[C@@H](n2nc(-c3ccc(Oc4ccccc4)cc3)c3c(N)ncnc32)C1 [ibrutinib]
Summary of the method: as §1

[1] = compound: CC(=O)c1cnc2ccc(-c3cc(Cl)c(O)c(Cl)c3)nc2c1N[C@H]1CC[C@H](CN(C)C)CC1
Summary of the method: as §1

ralimetinib = compound: CC(C)(C)Cn1c(N)nc2ccc(-c3[nH]c(C(C)(C)C)nc3-c3ccc(F)cc3)nc21 [ralimetinib]
Summary of the method: as §1

[2] = compound: CC(C)(O)CC(=O)NCCn1ccc2ncnc(Nc3ccc(Oc4cccc(C(F)(F)F)c4)c(Cl)c3)c21
Summary of the method: as §1

[3] = compound: CC(C)C1=C2N=C(C=C(N2N=C1)NCC3=CC=CC=C3)NCCCCCCN
Summary of the method: as §1

[4] = compound: CC(C)C[C@@H](C=O)NC(=O)[C@H](CC(C)C)NC(=O)[C@H](CC(C)C)NC(=O)OCc1ccccc1
Summary of the method: as §1

pinometostat = compound: CC(C)N(C[C@H]1O[C@@H](n2cnc3c(N)ncnc32)[C@H](O)[C@@H]1O)[C@H]1C[C@@H](CCc2nc3cc(C(C)(C)C)ccc3[nH]2)C1 [pinometostat]
Summary of the method: as §1

[5] = compound: CC1=C(C(CC(=O)N1)C2=CC=C(C=C2)C(F)(F)F)C(=O)NC3=C(C=C4C(=C3)C=NN4)F
Summary of the method: as §1

[6] = compound: CC1=C(C2=C(C=C1)C(=O)C3=CC=CC=C3N2CCCN)C
Summary of the method: as §1

[7] = compound: CC1=C(C=C(C=C1)NC(=O)C2=CC(=CC=C2)C(C)(C)C#N)NC3=CC4=C(C=C3)N=CN(C4=O)C
Summary of the method: as §1

[8] = compound: CC1=C(C=C(C=C1)NC(=O)C2=CC(=CC=C2)N(C)C)NC(=O)C3=CC=C(C=C3)O
Summary of the method: as §1

[9] = compound: CC1=CC=C(C=C1)SC2=C3C=C(SC3=CN=C2)C(=O)N
Summary of the method: as §1

[10] = compound: CC1=NC(=CC=C1)C2=C(N=C(N2)C(C)(C)C)C3=CC4=NC=CN=C4C=C3
Summary of the method: as §1

Nexturastat A = compound: CCCCN(Cc1ccc(C(=O)NO)cc1)C(=O)Nc1ccccc1 [Nexturastat A]
Summary of the method: as §1

vemurafenib = compound: CCCS(=O)(=O)Nc1ccc(F)c(C(=O)c2c[nH]c3ncc(-c4ccc(Cl)cc4)cc23)c1F [vemurafenib]
Summary of the method: as §1

[11] = compound: CCCS(=O)(=O)Nc1ccc(F)c(C(=O)c2c[nH]c3ncc(Cl)cc23)c1F
Summary of the method: as §1

[12] = compound: CCCc1cc(C)[nH]c(=O)c1CNC(=O)c1cc(-c2ccnc(N3CCN(C)CC3)c2)cc2c1cnn2C(C)C
Summary of the method: as §1

givinostat = compound: CCN(CC)Cc1ccc2cc(COC(=O)Nc3ccc(C(=O)NO)cc3)ccc2c1 [givinostat]
Summary of the method: as §1

barasertib = compound: CCN(CCCOc1ccc2c(Nc3cc(CC(=O)Nc4cccc(F)c4)[nH]n3)ncnc2c1)CCOP(=O)(O)O [barasertib]
Summary of the method: as §1

Measured: log2 fold change

NUP133 (UniProt Q8WUM0)
inactive: IRAK-1-4 Inhibitor I -0.106 | ibrutinib -0.048 | [1] -0.093 | ralimetinib 0.114 | [2] 0.052 | [3] -0.037 | [4] 0.053 | pinometostat 0.094 | [5] -0.044 | [6] -0.016 | [7] 0.003 | [8] 0.087 | [9] 0.013 | [10] 0.06 | Nexturastat A 0.137 | vemurafenib 0.014 | [11] 0.006 | [12] 0.091 | givinostat 0.026 | barasertib 0.09

NUP153 (UniProt P49790)
inactive: IRAK-1-4 Inhibitor I -0.02 | ibrutinib -0.014 | [1] -0.024 | ralimetinib 0.031 | [2] 0.068 | [3] -0.028 | [4] 0.06 | pinometostat 0.024 | [5] 0.044 | [6] 0.033 | [7] -0.014 | [8] 0.054 | [9] -0.007 | [10] 0.007 | Nexturastat A 0.081 | vemurafenib -0.027 | [11] 0.002 | [12] -0.01 | givinostat -0.007 | barasertib 0.001

OTULIN (UniProt Q96BN8)
active: [3] -0.362
inactive: IRAK-1-4 Inhibitor I 0.021 | ibrutinib -0.025 | [1] -0.003 | ralimetinib -0.01 | [2] -0.059 | [4] 0.024 | pinometostat 0.034 | [6] 0.008 | [7] 0.03 | [8] 0.002 | [9] 0.035 | [10] 0.015 | Nexturastat A -0.17 | vemurafenib -0.023 | [11] 0.171 | [12] -0.018 | givinostat 0.039 | barasertib 0.105

OGFOD1 (UniProt Q8N543)
inactive: IRAK-1-4 Inhibitor I 0.07 | ibrutinib -0.036 | [1] 0.009 | ralimetinib -0.05 | [2] -0.023 | [3] -0.018 | [4] 0.035 | pinometostat -0.011 | [6] 0.036 | [7] -0.013 | [8] -0.01 | [9] 0.013 | [10] 0.033 | Nexturastat A -0.061 | vemurafenib -0.01 | [11] -0.006 | [12] 0.006 | givinostat -0.112 | barasertib 0.009

ORC3 isoform 2 (UniProt Q9UBD5)
inactive: IRAK-1-4 Inhibitor I -0.113 | ibrutinib -0.015 | [1] -0.132 | ralimetinib -0.059 | [2] -0.383 | [3] -0.338 | [4] -0.013 | pinometostat 0.012 | [6] -0.049 | [7] -0.027 | [8] -0.056 | [9] 0.146 | [10] 0.075 | Nexturastat A -0.124 | vemurafenib 0.012 | [11] 0.143 | [12] 0.044 | givinostat 0.145 | barasertib 0.178

NSUN2 (UniProt Q08J23)
active: [3] -0.314
inactive: IRAK-1-4 Inhibitor I -0.02 | ibrutinib -0.029 | [1] -0.165 | ralimetinib 0.062 | [2] -0.008 | [4] 0.026 | pinometostat 0.058 | [6] -0.075 | [7] -0.042 | [8] 0.013 | [9] -0.021 | [10] -0.009 | Nexturastat A 0.037 | vemurafenib 0.016 | [11] 0.061 | [12] 0.019 | givinostat -0.204 | barasertib 0.037

ORC5 (UniProt O43913)
inactive: IRAK-1-4 Inhibitor I 0.024 | ibrutinib -0.014 | [1] -0.306 | ralimetinib 0.015 | [3] -0.134 | [4] 0.005 | pinometostat 0.128 | [6] 0.08 | [7] -0.193 | [8] -0.089 | [9] 0 | [10] -0.038 | vemurafenib 0.058 | [11] 0.058 | [12] 0.058 | givinostat -0.009 | barasertib 0.025

OCIAD1 (UniProt D6RDK6)
inactive: IRAK-1-4 Inhibitor I -0.05 | ibrutinib -0.148 | [1] -0.165 | ralimetinib -0.284 | [2] 0.03 | [3] -0.056 | [4] 0.079 | pinometostat -0.021 | [6] 0.047 | [7] 0.037 | [8] 0.011 | [9] -0.121 | [10] -0.017 | Nexturastat A -0.158 | vemurafenib -0.031 | [11] -0.171 | [12] -0.633 | givinostat 0.087 | barasertib 0.05

ORC2 (UniProt Q13416)
inactive: IRAK-1-4 Inhibitor I 0.094 | ibrutinib -0.066 | ralimetinib 0.062 | [2] -0.172 | [3] -0.172 | [4] 0.068 | pinometostat -0.105 | [5] 0.092 | [6] -0.015 | [7] 0.011 | [8] -0.039 | [9] 0.017 | [10] -0.069 | Nexturastat A 0.029 | [11] 0.012 | [12] -0.055 | givinostat 0.188 | barasertib 0.015

NUMBL (UniProt Q9Y6R0)
inactive: IRAK-1-4 Inhibitor I 0.144 | ibrutinib -0.032 | ralimetinib -0.032 | [2] 0.044 | [3] -0.026 | [4] 0.162 | pinometostat 0.111 | [7] 0.011 | [8] -0.045 | [9] -0.018 | [10] -0.081 | Nexturastat A 0.121 | vemurafenib -0.144 | [11] -0.005 | [12] 0.249 | givinostat 0 | barasertib 0.069
active: [1] -0.349

NUF2 (UniProt Q9BZD4)
inactive: IRAK-1-4 Inhibitor I -0.419 | ibrutinib -0.137 | [1] 0.021 | [2] 0.004 | pinometostat 0.56 | [5] -0.119 | [9] -0.03 | [10] -0.267 | Nexturastat A 0.352 | vemurafenib 0.083 | [11] -0.037 | [12] 0.194 | barasertib 0.05

NUCKS1 (UniProt Q9H1E3)
inactive: IRAK-1-4 Inhibitor I 0.094 | ibrutinib -0.018 | [1] 0.208 | ralimetinib -0.054 | [2] 0.018 | [3] 0.138 | [4] -0.029 | pinometostat -0.061 | [7] -0.036 | [8] 0.065 | [9] -0.014 | [10] 0.044 | Nexturastat A -0.061 | vemurafenib 0.017 | [11] -0.061 | [12] -0.076 | givinostat -0.004 | barasertib 0.008
active: [6] -0.454

NUP160 (UniProt Q12769)
inactive: IRAK-1-4 Inhibitor I -0.03 | ibrutinib -0.041 | [1] -0.13 | ralimetinib -0.002 | [2] -0.032 | [3] -0.137 | [4] -0.01 | pinometostat 0.058 | [6] -0.012 | [7] 0.006 | [8] 0.037 | [9] 0.023 | [10] 0.017 | Nexturastat A -0.037 | vemurafenib -0.01 | [11] 0.083 | [12] 0.002 | givinostat 0.018 | barasertib 0.062

OGFOD3 isoform 2 (UniProt Q6PK18)
inactive: IRAK-1-4 Inhibitor I 0.058 | ibrutinib -0.099 | [1] 0.023 | [2] 0 | [3] -0.016 | pinometostat -0.006 | [5] 0.059 | [6] 0.002 | [7] 0.026 | [9] -0.072 | [10] -0.019 | Nexturastat A 0.023 | vemurafenib -0.026 | [11] 0.002 | [12] -0.078 | givinostat 0.081 | barasertib 0.041

NTMT1 (UniProt Q9BV86)
inactive: IRAK-1-4 Inhibitor I 0 | ibrutinib 0.011 | [1] -0.046 | ralimetinib -0.02 | [2] -0.053 | [3] 0.095 | [4] -0.052 | pinometostat -0.029 | [6] 0.157 | [7] 0.05 | [8] 0.037 | [9] -0.003 | [10] -0.034 | Nexturastat A -0.042 | vemurafenib 0.062 | [11] 0.012 | [12] -0.073 | givinostat -0.066 | barasertib 0.019

Two consecutive entries out of the list so far:
NUP160 (UniProt Q12769)
inactive: IRAK-1-4 Inhibitor I -0.03 | ibrutinib -0.041 | [1] -0.13 | ralimetinib -0.002 | [2] -0.032 | [3] -0.137 | [4] -0.01 | pinometostat 0.058 | [6] -0.012 | [7] 0.006 | [8] 0.037 | [9] 0.023 | [10] 0.017 | Nexturastat A -0.037 | vemurafenib -0.01 | [11] 0.083 | [12] 0.002 | givinostat 0.018 | barasertib 0.062

OGFOD3 isoform 2 (UniProt Q6PK18)
inactive: IRAK-1-4 Inhibitor I 0.058 | ibrutinib -0.099 | [1] 0.023 | [2] 0 | [3] -0.016 | pinometostat -0.006 | [5] 0.059 | [6] 0.002 | [7] 0.026 | [9] -0.072 | [10] -0.019 | Nexturastat A 0.023 | vemurafenib -0.026 | [11] 0.002 | [12] -0.078 | givinostat 0.081 | barasertib 0.041

More records

NT5DC1 (UniProt Q5TFE4)
inactive: IRAK-1-4 Inhibitor I 0.049 | ibrutinib 0.021 | [1] -0.039 | ralimetinib -0.054 | [2] -0.019 | [3] 0.02 | [4] -0.011 | pinometostat -0.024 | [6] -0.022 | [7] 0.149 | [8] -0.018 | [9] -0.019 | [10] 0.021 | Nexturastat A -0.068 | vemurafenib -0.001 | [11] -0.016 | [12] -0.003 | givinostat 0.004 | barasertib -0.039
